# From PubChem BioAssay (EPA / NIEHS)
# The chains behind the UniProt entries cited, without tags or fusion partners.
# UniProt P03372, whole entry, looked up: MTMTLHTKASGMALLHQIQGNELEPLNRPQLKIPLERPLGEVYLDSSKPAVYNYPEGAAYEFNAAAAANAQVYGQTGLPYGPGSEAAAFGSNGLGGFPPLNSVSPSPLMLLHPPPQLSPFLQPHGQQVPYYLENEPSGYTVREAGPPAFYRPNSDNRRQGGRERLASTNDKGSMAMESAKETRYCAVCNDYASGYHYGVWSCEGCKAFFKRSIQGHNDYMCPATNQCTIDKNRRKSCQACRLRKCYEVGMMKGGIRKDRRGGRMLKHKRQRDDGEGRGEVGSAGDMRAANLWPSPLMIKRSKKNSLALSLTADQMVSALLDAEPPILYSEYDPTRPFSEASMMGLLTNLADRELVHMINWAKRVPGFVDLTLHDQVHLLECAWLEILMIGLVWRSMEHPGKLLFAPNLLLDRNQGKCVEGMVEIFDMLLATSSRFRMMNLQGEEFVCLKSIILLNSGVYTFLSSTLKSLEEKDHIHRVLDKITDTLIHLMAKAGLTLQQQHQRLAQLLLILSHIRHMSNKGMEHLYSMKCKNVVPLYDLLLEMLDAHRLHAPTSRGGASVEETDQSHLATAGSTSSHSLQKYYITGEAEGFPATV
# Inconclusive means that the source gave no clear call. Such entries were picked first, then a sample of the others. Potencies beside an inconclusive call are fits to weak or partial responses and may not hold up. A structure can be active in one record and inactive in another. The source made the active and inactive calls. How the source made its calls: active means hit-call score of the fitted dose curve at least 0.9, where 1 is the maximum; inconclusive means response in the unintended direction; inactive means score below 0.9.
# Molecular target: Estrogen receptor (Homo sapiens) (UniProt P03372)
# Test: NVS_NR_hER: NovaScreen (NVS) Nuclear Receptor Binding Assay for human Estrogen Receptor (ER) (AID 2283348)
# How it was run: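 MCF7-derived receptor extract, radiolabelled ligand, competitive displacement. Read: scintillation counts at 18 h. DMSO = negative control/baseline. Primary 25 uM duplicate; follow-up concentration–response.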
Structure (SMILES),AC50,outcome
O=S1(=O)CC(Cl)(Cl)C(Cl)(Cl)C1,active: 18500 nM,
CC(C)(C)NC(=O)[C@H]1CC[C@H]2[C@@H]3CC[C@H]4NC(=O)C=C[C@]4(C)[C@H]3CC[C@]12C,inconclusive: 25000 nM,
c1ccc2cc3ccccc3cc2c1,inconclusive: 2.29 nM,
CCc1nn(C2CCCCC2)c2cc(C3(C#N)CCC(C(=O)O)CC3)ccc12 (stereo not drawn),,inactive
CN[C@H]1CC[C@@H](c2ccc(Cl)c(Cl)c2)c2ccc(S(N)(=O)=O)cc21,inconclusive: 133 nM,
c1ccc(Nc2cccc3ccccc23)cc1,,inactive
CC1=C(/C=C/C(C)=C/C=C/C(C)=C/C(=O)O)C(C)(C)CCC1,,inactive
CCc1cccc(CC)c1N,active: 10000 nM,
CC(C)(C)c1cccc(C(C)(C)C)c1O,inconclusive: 65 nM,
CN1CCC[C@H]1c1cccnc1,inconclusive: 209 nM,
Cc1oc2c(NC(=O)c3c(Cl)cccc3Cl)cccc2c1C(C)(C)O,active: 13600 nM,
CCCCc1nc2cccnc2n1Cc1ccc(-c2ccccc2-c2nnn[nH]2)cc1,inconclusive: 39.9 nM,
COC1=CC(=O)C[C@@H](C)[C@]12Oc1c(Cl)c(OC)cc(OC)c1C2=O,inconclusive: 216 nM,
C#C[C@]1(O)CC[C@H]2[C@@H]3CCC4=Cc5oncc5C[C@]4(C)[C@H]3CC[C@@]21C,active: 11500 nM,inactive
Cc1cccc(C)c1O,inconclusive: 288 nM,
O=C(Nc1cccc([N+](=O)[O-])c1)c1cc2ccccc2cc1O,,inactive
CCCCCCCC/C=C\CCCCCCCC(=O)N(C)CC(=O)O,inconclusive: 1.34 nM,

# Another view of part of the listing above.
Structure (SMILES)	AC50	outcome
CC1=C(/C=C/C(C)=C/C=C/C(C)=C/C(=O)O)C(C)(C)CCC1		inactive
CCc1cccc(CC)c1N	active: 10000 nM	
